Drawing on PMC10584876, this text covers binding for two molecules.

One assay concerns the target T1, Cofilin-GFP (Drosophila) (UniProt P45594).
T1 sequence: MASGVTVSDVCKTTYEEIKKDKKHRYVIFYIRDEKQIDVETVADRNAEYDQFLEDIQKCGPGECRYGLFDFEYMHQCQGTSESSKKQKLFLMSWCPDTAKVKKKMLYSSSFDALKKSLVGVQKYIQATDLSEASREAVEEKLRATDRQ
Kind of assay: co-IP; da-GAL4 > UAS-Cofilin-GFP adult head extracts, anti-GFP antibody, Protein A/G Agarose, western blot. (In general: In western blotting, separated proteins are transferred to a membrane and probed.)

In a further assay the target is DNlg2-HA (Drosophila). Briefly: co-IP; da-GAL4 > UAS-DNlg2-HA adult head extracts, anti-HA antibody, Protein A/G Agarose, western blot.

These are yes or no findings as the source states them, for the method shown. In cells and extracts the contact can be indirect. Binding can be weak; no strength is given. For some assays here: Tags and fused reporters may be left off the sequences shown.

Take “DNlg2 (Drosophila (endogenous in adult heads))”: in the assay with Cofilin-GFP (Drosophila), the binding entry is recorded as “binds”.

B1: Cofilin (protein, UniProt P45594 1-148)
chain: T1 sequence
In the case of B1, the binding entry with DNlg2-HA (Drosophila) is given as “binds”.
